According to patent US9867372B2, “Tetrazolinone compound and use of same” (SUMITOMO CHEMICAL COMPANY, LIMITED, priority 2013, dated 2018):
Some results were stated once for a whole list of compounds, not compound by compound.

Columns and labels:
[1] = tested on: barley net blotch fungus (Pyrenophora teres); test: barley net blotch control test, foliar spray before inoculation; assay type: in vivo
[2] = tested on: wheat leaf blotch fungus (Septoria tritici); test: wheat leaf blotch control test, foliar spray 4 days before inoculation; assay type: in vivo
[3] = tested on: wheat leaf blotch fungus (Septoria tritici); test: wheat leaf blotch control test, foliar spray after inoculation; assay type: in vivo; conditions: 200 ppm, sprayed 3 days after inoculation (Test Example 13)
[4] = tested on: barley scald fungus (Rhynchosporium secalis); test: barley scald control test, foliar spray before inoculation; assay type: in vivo; conditions: 200 ppm, sprayed 2 days before inoculation (Test Example 16)
[5] = tested on: cucumber corynespora leaf spot fungus (Corynespora cassicola); test: cucumber corynespora leaf spot control test, foliar spray before inoculation; assay type: in vivo; conditions: 200 ppm, sprayed one day before inoculation (Test Example 18)
[6] = tested on: cucumber anthracnose fungus (Colletotrichum lagenarium); test: cucumber anthracnose control test, foliar spray before inoculation; assay type: in vivo; conditions: 200 ppm, sprayed one day before inoculation (Test Example 19)
[7] = tested on: kidney bean stem rot fungus (Sclerotinia sclerotiorum); test: kidney bean stem rot control test, foliar spray before inoculation
[8] = 500 ppm, sprayed 2 days before inoculation (Test Example 7)
[9] = 500 ppm, sprayed 4 days before inoculation (Test Example 11)
[10] = 200 ppm, sprayed 4 days before inoculation (Test Example 12)
[11] = 200 ppm, sprayed 2 days before inoculation (Test Example 8)

Measured: area of lesion spots on the treated plant relative to that on an untreated plant

COc1ccc(-c2cccc(OCc3c(C4CC4)cccc3-n3nnn(C)c3=O)n2)cc1 [compound 13]
≤ 30%: [1]; [8] | [2]; [9] | [3] | [4] | [5] | [6]

CCc1cccc(-n2nnn(C)c2=O)c1COc1cccc(-c2ccc(OC)cc2)n1 [compound 14]
≤ 30%: [5] | [7]; 200 ppm, kidney bean (Test Example 10)

COc1cccc(-n2nnn(C)c2=O)c1COc1cc(-c2ccc(Cl)cc2)ccc1C [compound 35]
≤ 30%: [1]; [8] | [2]; [10] | [4] | [5] | [6]

COc1cccc(-n2nnn(C)c2=O)c1COc1cc(-c2cccc(Cl)c2)ccc1C [compound 37]
≤ 30%: [1]; [8] | [2]; [9] | [3] | [4] | [5] | [6]

Cc1cccc(-n2nnn(C)c2=O)c1COc1nccc(-c2ccc(Cl)cc2)n1 [compound 103]
≤ 30%: [2]; [9] | [5] | [6] | [7]; 500 ppm, kidney bean (Test Example 9)

Cc1ccc(-c2cccc(OCc3c(C)cccc3-n3nnn(C)c3=O)c2)s1 [compound 166]
≤ 30%: [1]; [11] | [2]; [10] | [4] | [5] | [6]

COc1cc(Cl)ccc1-c1cccc(OCc2c(C)cccc2-n2nnn(C)c2=O)c1 [compound 181]
≤ 30%: [1]; [11] | [2]; [10] | [3] | [4] | [5]

Cc1cccc(-n2nnn(C)c2=O)c1COc1cccc(-c2ccn(C)n2)c1 [compound 208]
≤ 30%: [1]; [11] | [2]; [10] | [4] | [5] | [6]

Cc1cccc(-n2nnn(C)c2=O)c1COc1cccc(-c2cnn(C)c2)n1 [compound 215, 1-methyl-4-{3-methyl-2-[6-(1-methyl-1H-pyrazol-4-yl)pyridin-2-yloxymethyl]-phenyl}-1,4-dihydrotetrazol-5-one]
≤ 30%: [1]; [11] | [2]; [10] | [3] | [4] | [5]

Cc1cccc(-n2nnn(C)c2=O)c1COc1cccc(-c2ccc(Cl)s2)n1 [compound 217]
≤ 30%: [1]; [11] | [2]; [10] | [3] | [4] | [5] | [6]
